Laboratory results as given in article doi:10.1101/2022.06.12.495191.
No constants are given. Whether binding was seen depends on the method and setting. Binding calls can cover weak binding; strength is not graded here.

Target: T1, LFR (Arabidopsis) (UniProt Q9LS90)
T1 sequence: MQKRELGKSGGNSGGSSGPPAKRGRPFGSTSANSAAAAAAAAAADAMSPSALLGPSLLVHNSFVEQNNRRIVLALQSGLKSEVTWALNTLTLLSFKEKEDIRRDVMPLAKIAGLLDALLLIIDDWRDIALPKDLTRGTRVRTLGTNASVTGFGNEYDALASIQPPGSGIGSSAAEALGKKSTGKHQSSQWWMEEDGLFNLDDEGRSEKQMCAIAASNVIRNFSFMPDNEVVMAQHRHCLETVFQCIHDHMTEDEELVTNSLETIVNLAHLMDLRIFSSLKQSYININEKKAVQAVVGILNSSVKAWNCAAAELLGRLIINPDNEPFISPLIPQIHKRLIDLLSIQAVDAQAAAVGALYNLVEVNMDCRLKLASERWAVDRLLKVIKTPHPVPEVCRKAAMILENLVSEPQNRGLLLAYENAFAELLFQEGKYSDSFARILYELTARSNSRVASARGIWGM
Test: two-hybrid

Q: For “N-TPF1 (TPF1 amino acids 1-422) (Arabidopsis) (domain or fragment)”, which binding is on record?
A: Its binding is “binds”.
